This is one part of the list.

The chains behind the UniProt entries cited, without tags or fusion partners.
UniProt Q0JBA9, entry or part of it: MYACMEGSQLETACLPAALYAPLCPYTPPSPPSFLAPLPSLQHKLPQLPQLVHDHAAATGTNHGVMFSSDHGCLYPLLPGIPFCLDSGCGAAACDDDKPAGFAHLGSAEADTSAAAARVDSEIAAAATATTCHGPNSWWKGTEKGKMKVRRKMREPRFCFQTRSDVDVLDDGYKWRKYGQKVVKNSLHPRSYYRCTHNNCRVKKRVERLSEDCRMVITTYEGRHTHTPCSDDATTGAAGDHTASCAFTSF

The assay deals with OsWRKY34 (Oryza sativa, UniProt Q0JBA9 1-250). Nature of the assay: protein-binding microarray (RPBM); PBS, 2% BSA, 51.3 ng/ul salmon testes DNA, 50 uM zinc acetate, 200 nM TF, 25 C, 1 h; high values mean tight binding. To be noted: protein: recombinant; tags: N-terminal polyhistidine and DsRed monomer fusion (pET32a); label: CyDye5-dUTP incorporated in the synthesized complementary strand; 3' TTTTT single-stranded linker to array surface; dsDNA, one strand shown. The gist of the method:
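Transcription factors were each fused at the N-terminus to a polyhistidine tag plus DsRed and expressed in E. coli BL21-CodonPlus before Ni–NTA purification. Binding to a double-stranded custom Agilent array was carried out with 200 nM protein at 25 °C for 1 h in PBS, 2% BSA, salmon testes DNA and 50 µM zinc acetate. The binding signal is per-feature fluorescence intensity, in arbitrary units, on an Axon 4000B scanner.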
For “ATTAGTTTTTTTTTCTATATTTAATACTCCATGCATATGTCGGAGTCACCTAGTGCAG”, the binding signal was 9200 fluorescence intensity (a.u.).

In the case of “TCCTGTCCTGTCGGTGCTCTCGACTCCTCACCTCACCCACCGGAGTCACCTAGTGCAG”, the binding signal is 9880 fluorescence intensity (a.u.).

For “GTTTTAGCTGTAGTGTGTTTGCTTGCTGTTTGAATCAAACCGGAGTCACCTAGTGCAG”, the binding signal was 9550 fluorescence intensity (a.u.).

In the case of “CCACCAGTTTAATTATTCTATTGTACCTGCTCTATTATATCGGAGTCACCTAGTGCAG”, the binding signal was 8470 fluorescence intensity (a.u.).

For the sequence “CTCCACCCTGGAATTTTCTTCTCTACCAAGTCCCTTTCAACGGAGTCACCTAGTGCAG”, the binding signal is 8330 fluorescence intensity (a.u.).

With “CTAGCCAGTTCTTGCAGCCGTTTAGTCTGTTGTGACAATTCGGAGTCACCTAGTGCAG”, the binding signal was 8070 fluorescence intensity (a.u.).

In the case of “CTACACATCAATTCAGTTTATTCTTATTTTTAGGGTCATGCGGAGTCACCTAGTGCAG”, the binding signal is 8500 fluorescence intensity (a.u.).

“ATCTGGACCTATTTACAGCGGTTGACTTGATCTACCAATGCGGAGTCACCTAGTGCAG”: the binding signal was 8400 fluorescence intensity (a.u.).

With “ACGGCCTAGTTTTGGTTGAAGTTTTTGGTAGGGGTTAGTTCGGAGTCACCTAGTGCAG”, the binding signal was 12300 fluorescence intensity (a.u.).

On to “ATGCAAACTCTGACTCTGACCACTGGGCCCAACACGATCCCGGAGTCACCTAGTGCAG”, for which the binding signal was 8400 fluorescence intensity (a.u.).

Consider “AGGTTGTGTTTAGTTCCTTGTCAAAATTTTTTATGCATATCGGAGTCACCTAGTGCAG”, for which the binding signal was 11400 fluorescence intensity (a.u.).

Regarding “GTCTCGCACTTTCACTGTATGATACCGGCCACGATGTCATCGGAGTCACCTAGTGCAG”, the binding signal is 9930 fluorescence intensity (a.u.).

Regarding “GGCCATCCTATTCCTAGCTCATCATCACACTCTTGCATACCGGAGTCACCTAGTGCAG”, the binding signal was 9510 fluorescence intensity (a.u.).

Regarding “TTCTGTCGTGATTGCTTTGCTTCGGGTTTGCTCAGCGCTACGGAGTCACCTAGTGCAG”, the binding signal is 8650 fluorescence intensity (a.u.).

For “GTTCTTTTGTCGCTTATTGCAACGGGTGGGATATGTGTGACGGAGTCACCTAGTGCAG”, the binding signal was 12300 fluorescence intensity (a.u.).

As to “GCTGCCTATTCCATACAAATTTCGTAGGTTCATTTCCAACCGGAGTCACCTAGTGCAG”, the binding signal was 10000 fluorescence intensity (a.u.).

Consider “TCCCAAGTCCCAACTGCCAGCTCTGCCCACTTCTCGAAGCCGGAGTCACCTAGTGCAG”, for which the binding signal is 8600 fluorescence intensity (a.u.).

With “TTGGGCTCGTTTTGTGTTAATGTGGGCATATGTGGGTGATCGGAGTCACCTAGTGCAG”, the binding signal is 8130 fluorescence intensity (a.u.).

In the case of “CAAATCTGTAGTCCGCTTTCTTCTCTCTCTTCTCTCTTCTCGGAGTCACCTAGTGCAG”, the binding signal was 8060 fluorescence intensity (a.u.).

With “GACTTCTATCGTGACTTCGATACATTTTGATCTTGTTTCTCGGAGTCACCTAGTGCAG”, the binding signal is 9220 fluorescence intensity (a.u.).

For the sequence “GCTTTTCATTTGTCCTAGTGCTGGTTGGTAGGTACTTGCTCGGAGTCACCTAGTGCAG”, the binding signal was 11100 fluorescence intensity (a.u.).

As for “AAGTTTAATTTGTTATTTTTATTTTTATACGTCATCTTTTCGGAGTCACCTAGTGCAG”, the binding signal is 9760 fluorescence intensity (a.u.).

Regarding “TGTTGTATGCTTGTATGGGTTAAATATGTAATTATTACTACGGAGTCACCTAGTGCAG”, the binding signal is 8040 fluorescence intensity (a.u.).

As to “CTTCTCAAGTTCCAACCTTTGCGCTTTCTTATTATCAAAGCGGAGTCACCTAGTGCAG”, the binding signal was 8550 fluorescence intensity (a.u.).

On to “TATTCTGGTTTTGTGCGTTGCAACAAGTGTTCTTGGATGTCGGAGTCACCTAGTGCAG”, for which the binding signal was 8500 fluorescence intensity (a.u.).

Take “GGGGTTATGGTGGATTTGGTGCTTTGGGGCATTATGTTTACGGAGTCACCTAGTGCAG”: the binding signal was 13800 fluorescence intensity (a.u.).

As to “CATTCTATTCCATTTTCAGTCGCATAGGTCTATAAATAAACGGAGTCACCTAGTGCAG”, the binding signal was 8780 fluorescence intensity (a.u.).

As to “GAGTCGGGTTGTTGTTCATGACCACCGGCAGCCACCGTACCGGAGTCACCTAGTGCAG”, the binding signal is 9030 fluorescence intensity (a.u.).

Consider “GCTTCTCTGGTAATAGATTCAATAATGGCTTTCGTTGTCCCGGAGTCACCTAGTGCAG”, for which the binding signal is 11400 fluorescence intensity (a.u.).

Take “GCCTTTTCATTGGCCACCTATGGCTAATTGTGCAGAAATCCGGAGTCACCTAGTGCAG”: the binding signal is 8410 fluorescence intensity (a.u.).

Consider “CCGCGGGTGGGGAGATTTGACCGGCGTTGACTCCGGGATGCGGAGTCACCTAGTGCAG”, for which the binding signal was 14300 fluorescence intensity (a.u.).

Turning to “GCCAAGTTTCTTGCCCTCAGCGTGCTCGTTCTTTGTTGATCGGAGTCACCTAGTGCAG”, the binding signal is 9030 fluorescence intensity (a.u.).

In the case of “CTATGACAGCATTACATTTGAAAACTTTGCTTTTGTAACTCGGAGTCACCTAGTGCAG”, the binding signal was 8330 fluorescence intensity (a.u.).

Regarding “ATGGTTTTTCAGGGTTGGATTTATGTGTGGTCAGTTTAAACGGAGTCACCTAGTGCAG”, the binding signal is 12000 fluorescence intensity (a.u.).

With “TCAGACAAGTATTTTAACCGTATTCGTTTCATGTCTATATCGGAGTCACCTAGTGCAG”, the binding signal was 9480 fluorescence intensity (a.u.).

Turning to “AAGACTCCTTTGACTTAAATTACTGGGCGGATTAGGATTACGGAGTCACCTAGTGCAG”, the binding signal is 8180 fluorescence intensity (a.u.).

Turning to “AAGTGTGGAGGTGGCATATCTTTATCCATTTGGTTGTTATCGGAGTCACCTAGTGCAG”, the binding signal is 10500 fluorescence intensity (a.u.).

For “GTTTGACCATTCGTTTTATTCAATTTTTTTTAGTAAATATCGGAGTCACCTAGTGCAG”, the binding signal was 9640 fluorescence intensity (a.u.).

As to “TTTCTAGTCAAACTTCATAGGTTGACTAAATTTATGAAAACGGAGTCACCTAGTGCAG”, the binding signal was 11800 fluorescence intensity (a.u.).

On to “GAAATTCTGTCCAGATACGTTGTGACTAGGACATGTCACACGGAGTCACCTAGTGCAG”, for which the binding signal is 8740 fluorescence intensity (a.u.).

For “TAATCTTAAAAGCCATTATTACTCTCTTACTCGCTTTCATCGGAGTCACCTAGTGCAG”, the binding signal is 9160 fluorescence intensity (a.u.).

For the sequence “CTACGAGCTTGAGCTAGATCCTGAGGCGGGGTAGTATTCCCGGAGTCACCTAGTGCAG”, the binding signal is 8980 fluorescence intensity (a.u.).

Consider “TTCAACTGTTTTGTCCAAACTATAAATTTGCAGCAACTTTCGGAGTCACCTAGTGCAG”, for which the binding signal is 10300 fluorescence intensity (a.u.).

As to “TACAGCAAATGTTACAATCCTGGGTTTTATTTTCCCATTCCGGAGTCACCTAGTGCAG”, the binding signal was 8070 fluorescence intensity (a.u.).

For the sequence “CTGTAGCCCATTTTCCTTTTTTTCTCTTCTTTTTTCTTCTCGGAGTCACCTAGTGCAG”, the binding signal is 10800 fluorescence intensity (a.u.).

As for “ACCCACTGCCGGTCATCCACCGTCCACGGCCGTCCCTTTACGGAGTCACCTAGTGCAG”, the binding signal is 8100 fluorescence intensity (a.u.).

Consider “TGTTACCTCCCCTGCTTCTCTTCCGCCCGTTTCATGGACTCGGAGTCACCTAGTGCAG”, for which the binding signal was 9040 fluorescence intensity (a.u.).

For the sequence “TTGTGTGTGCGTTTGTGATTGCGTCGGTCGGTTTCAGTTCCGGAGTCACCTAGTGCAG”, the binding signal is 17500 fluorescence intensity (a.u.).

As to “GCGTGTTGAGTCGGATCGAGGTTTGCGTTTGTGTTCGTTTCGGAGTCACCTAGTGCAG”, the binding signal is 8760 fluorescence intensity (a.u.).

For “GAGGAGCTCGCCAATTGTTCCGCGTCATATCGCCAGCTCTCGGAGTCACCTAGTGCAG”, the binding signal is 9060 fluorescence intensity (a.u.).

Consider “CATCCCTGACTTTTTTTTTAAATTTTCCGTTTCTCCTTTTCGGAGTCACCTAGTGCAG”, for which the binding signal is 9550 fluorescence intensity (a.u.).

Take “ACTGTCCGCATCCTCGTTGCCGCCGTCGTGGCACATCGCGCGGAGTCACCTAGTGCAG”: the binding signal is 8660 fluorescence intensity (a.u.).

Turning to “AACATGTGAAAGTTTCTGTTCTTTTCATCTTCTTGACGACCGGAGTCACCTAGTGCAG”, the binding signal was 8470 fluorescence intensity (a.u.).

In the case of “GAAGTGGTGGTGGGGTGGTAGTAGTAGTTTGGTAATAGTACGGAGTCACCTAGTGCAG”, the binding signal is 12100 fluorescence intensity (a.u.).

The values above are taken from article PMC7819943, “Rice protein-binding microarrays: a tool to detect cis-acting elements near promoter regions in rice”.
